Data source: PubChem BioAssay AID1259308 (NCATS, 2017)
Here is a random part of about 59,000 reagents. Over the whole deposit, about 1,510 (2.6%) are marked active. 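Calls use total luciferase alone and ignore viability, so some active siRNAs may act by altering cell number.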 The numbers tell different reagents against one gene apart. Not all columns of the deposit are shown.

- Purpose: 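Knock-downs that increase output of a recombinant reporter protein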 (primary screen)
- Cells: human HEK293 embryonic kidney cells stably expressing firefly luciferase (HEK-CMV-Luc2-Hygro)
- Reagent: single siRNA against human genes, 0.8 pmol siRNA per well
- Time to read-out: 72 h
- Measurement: 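Luciferase light (ONE-Glo) measured on one replicate plate set and viability (CellTiter-Glo) on the other, scaled to a negative control siRNA, with robust z-scores and luciferase per cell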
- Direction: total luciferase, z-score and total luciferase, % of control: higher = more reporter protein produced
- Hit rule: 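Active when the median/MAD z-score for overall luciferase is greater than 3; a gene was taken forward for validation with new siRNAs if at least two of its three siRNAs passed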
- Meaning of the calls: active = raised luciferase; inactive = no rise

For TRIM33 (tripartite motif containing 33) #1, how do the results read?
total luciferase, z-score: 0.136; total luciferase, % of control: 84.6; activity call: inactive

What is on record for TRIM33 (tripartite motif containing 33) #2?
total luciferase, z-score: 0.472; total luciferase, % of control: 91.3; activity call: inactive

What did the screen give for TRIM33 (tripartite motif containing 33) #3?
total luciferase, z-score: -0.244; total luciferase, % of control: 77; activity call: inactive

How did the screen score PGAP3 (post-GPI attachment to proteins phospholipase 3) #1?
total luciferase, z-score: 2.99; total luciferase, % of control: 141; activity call: inactive

For PGAP3 (post-GPI attachment to proteins phospholipase 3) #2, what does the deposit list?
total luciferase, z-score: -0.56; total luciferase, % of control: 70.7; activity call: inactive

How did the screen score PGAP3 (post-GPI attachment to proteins phospholipase 3) #3?
total luciferase, z-score: -0.58; total luciferase, % of control: 70.3; activity call: inactive

What did the screen give for KAZALD1 (Kazal type serine peptidase inhibitor domain 1) #1?
total luciferase, z-score: -0.883; total luciferase, % of control: 64.3; activity call: inactive

For KAZALD1 (Kazal type serine peptidase inhibitor domain 1) #2, what was measured?
total luciferase, z-score: 1.77; total luciferase, % of control: 117; activity call: inactive

For KAZALD1 (Kazal type serine peptidase inhibitor domain 1) #3, what does the deposit list?
total luciferase, z-score: -0.667; total luciferase, % of control: 68.6; activity call: inactive

With TJAP1 (tight junction associated protein 1) #1, how do the results read?
total luciferase, z-score: -0.366; total luciferase, % of control: 74.6; activity call: inactive

For TJAP1 (tight junction associated protein 1) #2, what does the deposit list?
total luciferase, z-score: -0.747; total luciferase, % of control: 67; activity call: inactive

With TJAP1 (tight junction associated protein 1) #3, what does the deposit list?
total luciferase, z-score: -0.227; total luciferase, % of control: 77.4; activity call: inactive

Which result is listed for MAMLD1 (mastermind like domain containing 1) #1?
total luciferase, z-score: 1.38; total luciferase, % of control: 109; activity call: inactive

Which result is listed for MAMLD1 (mastermind like domain containing 1) #2?
total luciferase, z-score: 1.41; total luciferase, % of control: 110; activity call: inactive

With MAMLD1 (mastermind like domain containing 1) #3, how do the results read?
total luciferase, z-score: -1.18; total luciferase, % of control: 58.5; activity call: inactive

With CCDC102A (coiled-coil domain containing 102A) #1, how do the results read?
total luciferase, z-score: 0.747; total luciferase, % of control: 96.7; activity call: inactive

With CCDC102A (coiled-coil domain containing 102A) #2, how do the results read?
total luciferase, z-score: -0.753; total luciferase, % of control: 66.9; activity call: inactive

How did the screen score CCDC102A (coiled-coil domain containing 102A) #3?
total luciferase, z-score: -0.3; total luciferase, % of control: 75.9; activity call: inactive

What did the screen give for PLSCR5 (phospholipid scramblase family member 5) #1?
total luciferase, z-score: 2.41; total luciferase, % of control: 130; activity call: inactive

Which result is listed for PLSCR5 (phospholipid scramblase family member 5) #2?
total luciferase, z-score: -0.0413; total luciferase, % of control: 81.1; activity call: inactive

With PLSCR5 (phospholipid scramblase family member 5) #3, what does the deposit list?
total luciferase, z-score: 1.39; total luciferase, % of control: 110; activity call: inactive

Reformatted: 2 of the entries above.
{"gene symbol": "TJAP1 (tight junction associated protein 1)", "reagent no.": 3, "total luciferase, z-score": -0.227, "total luciferase, % of control": 77.4, "activity call": "inactive"}
{"gene symbol": "MAMLD1 (mastermind like domain containing 1)", "reagent no.": 1, "total luciferase, z-score": 1.38, "total luciferase, % of control": 109, "activity call": "inactive"}

The results go on:
Which result is listed for TAS2R9 (taste 2 receptor member 9) #1?
total luciferase, z-score: 1.2; total luciferase, % of control: 106; activity call: inactive

With TAS2R9 (taste 2 receptor member 9) #2, how do the results read?
total luciferase, z-score: 0.0297; total luciferase, % of control: 82.5; activity call: inactive

For TAS2R9 (taste 2 receptor member 9) #3, how do the results read?
total luciferase, z-score: -0.767; total luciferase, % of control: 66.6; activity call: inactive

What is on record for DMKN (dermokine) #1?
total luciferase, z-score: 2.15; total luciferase, % of control: 125; activity call: inactive

With DMKN (dermokine) #2, how do the results read?
total luciferase, z-score: -1.13; total luciferase, % of control: 59.5; activity call: inactive

With DMKN (dermokine) #3, what does the deposit list?
total luciferase, z-score: -0.46; total luciferase, % of control: 72.7; activity call: inactive

Which result is listed for RASA4 (RAS p21 protein activator 4) #1?
total luciferase, z-score: -0.11; total luciferase, % of control: 79.7; activity call: inactive

What is on record for RASA4 (RAS p21 protein activator 4) #2?
total luciferase, z-score: -0.0336; total luciferase, % of control: 81.2; activity call: inactive

How did the screen score RASA4 (RAS p21 protein activator 4) #3?
total luciferase, z-score: -1.33; total luciferase, % of control: 55.5; activity call: inactive

How did the screen score SLC35F6 #1?
total luciferase, z-score: -1.72; total luciferase, % of control: 47.7; activity call: inactive

What is on record for SLC35F6 #2?
total luciferase, z-score: -0.183; total luciferase, % of control: 78.2; activity call: inactive

With SLC35F6 #3, how do the results read?
total luciferase, z-score: -1.02; total luciferase, % of control: 61.5; activity call: inactive

For KRTAP23-1 (keratin associated protein 23-1) #1, what does the deposit list?
total luciferase, z-score: -0.526; total luciferase, % of control: 71.4; activity call: inactive

For KRTAP23-1 (keratin associated protein 23-1) #2, what does the deposit list?
total luciferase, z-score: -1.66; total luciferase, % of control: 48.8; activity call: inactive

What is on record for KRTAP23-1 (keratin associated protein 23-1) #3?
total luciferase, z-score: -1.65; total luciferase, % of control: 49.1; activity call: inactive

With GPR161 (G protein-coupled receptor 161) #1, what does the deposit list?
total luciferase, z-score: -0.252; total luciferase, % of control: 76.9; activity call: inactive

What is on record for GPR161 (G protein-coupled receptor 161) #2?
total luciferase, z-score: -0.274; total luciferase, % of control: 76.4; activity call: inactive

What did the screen give for GPR161 (G protein-coupled receptor 161) #3?
total luciferase, z-score: 0.0761; total luciferase, % of control: 83.4; activity call: inactive

What did the screen give for SYCE3 (synaptonemal complex central element protein 3) #1?
total luciferase, z-score: -0.279; total luciferase, % of control: 76.3; activity call: inactive

For SYCE3 (synaptonemal complex central element protein 3) #2, what was measured?
total luciferase, z-score: -1.91; total luciferase, % of control: 43.8; activity call: inactive

For SYCE3 (synaptonemal complex central element protein 3) #3, what was measured?
total luciferase, z-score: -0.358; total luciferase, % of control: 74.8; activity call: inactive
